Reference: paper PMC4255730
Results are given in words; binding and its absence hold for the method and conditions named. Binding seen in cells or lysates may run through a third protein. Binding can be weak; no strength is given. Sequences can lack the tags named with a protein.

Target: T1, SUBEX-C57Y-GFP (misfolded variant of the STRUBBELIG extracellular domain, C57Y, fused to GFP) (A. thaliana) (UniProt Q8RWZ1)
T1 sequence (chain, N-glycans at N70, N119, N243 (mainly oligomannosidic)): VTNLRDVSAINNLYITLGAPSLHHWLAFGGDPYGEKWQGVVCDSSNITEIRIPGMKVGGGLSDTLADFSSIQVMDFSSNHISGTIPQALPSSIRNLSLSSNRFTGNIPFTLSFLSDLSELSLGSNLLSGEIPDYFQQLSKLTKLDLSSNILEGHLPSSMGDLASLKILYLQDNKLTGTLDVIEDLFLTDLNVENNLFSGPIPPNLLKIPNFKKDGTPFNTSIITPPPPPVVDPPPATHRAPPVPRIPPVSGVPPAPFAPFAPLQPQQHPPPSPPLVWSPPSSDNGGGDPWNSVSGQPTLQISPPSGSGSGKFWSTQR
Assay: co-IP; GFP-tagged SUBEX variants captured on GFP trap beads (1.5 h, 4°C) from RIPA extracts of co-infiltrated N. benthamiana leaves, with or without 20 μM kifunensine; co-purified proteins detected by immunoblot with anti-HA or anti-mRFP

- binding: binds
Substance: SEL1L-HA (A. thaliana)
